Reference: the supplement of paper PMC10849652
The list shows a part of the results. Residues, ends and D or L forms follow the SMILES beside them. *: point of attachment. Cbz = O=C(OCc1ccccc1)*

By UniProt entry, the sequences of proteins in these tests, tags left out. Where a name states a change or a piece, a line headed by the entry shows the natural chain unless it says otherwise.
UniProt Q9UL26: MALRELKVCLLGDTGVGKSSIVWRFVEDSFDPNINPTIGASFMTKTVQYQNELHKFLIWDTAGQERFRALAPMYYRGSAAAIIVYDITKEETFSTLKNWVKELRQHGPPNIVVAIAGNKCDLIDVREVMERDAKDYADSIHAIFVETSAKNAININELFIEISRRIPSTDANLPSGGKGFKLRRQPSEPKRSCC
UniProt Q96S21: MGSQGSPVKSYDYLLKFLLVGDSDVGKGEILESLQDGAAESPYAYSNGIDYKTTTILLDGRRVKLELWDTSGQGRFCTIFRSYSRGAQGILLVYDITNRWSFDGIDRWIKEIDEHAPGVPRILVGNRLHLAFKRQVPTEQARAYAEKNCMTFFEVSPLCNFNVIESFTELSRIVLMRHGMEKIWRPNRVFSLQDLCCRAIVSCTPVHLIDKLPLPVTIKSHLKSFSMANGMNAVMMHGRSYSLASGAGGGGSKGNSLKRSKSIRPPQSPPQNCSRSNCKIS
UniProt P98179: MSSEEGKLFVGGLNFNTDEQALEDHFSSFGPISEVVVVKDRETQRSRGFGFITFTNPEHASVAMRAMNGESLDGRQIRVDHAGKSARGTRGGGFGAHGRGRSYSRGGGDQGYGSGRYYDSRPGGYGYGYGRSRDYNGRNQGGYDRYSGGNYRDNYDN
UniProt Q99638: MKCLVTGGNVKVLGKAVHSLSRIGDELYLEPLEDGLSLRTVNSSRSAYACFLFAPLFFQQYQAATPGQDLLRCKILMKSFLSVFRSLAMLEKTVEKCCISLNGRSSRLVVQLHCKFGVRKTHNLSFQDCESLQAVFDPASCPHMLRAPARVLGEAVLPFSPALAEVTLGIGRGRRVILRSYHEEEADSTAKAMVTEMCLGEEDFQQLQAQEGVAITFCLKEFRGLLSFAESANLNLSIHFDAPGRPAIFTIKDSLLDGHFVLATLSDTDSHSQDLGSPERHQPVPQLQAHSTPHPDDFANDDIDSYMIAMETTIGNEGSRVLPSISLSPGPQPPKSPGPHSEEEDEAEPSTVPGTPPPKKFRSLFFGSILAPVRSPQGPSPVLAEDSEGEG
UniProt P51159: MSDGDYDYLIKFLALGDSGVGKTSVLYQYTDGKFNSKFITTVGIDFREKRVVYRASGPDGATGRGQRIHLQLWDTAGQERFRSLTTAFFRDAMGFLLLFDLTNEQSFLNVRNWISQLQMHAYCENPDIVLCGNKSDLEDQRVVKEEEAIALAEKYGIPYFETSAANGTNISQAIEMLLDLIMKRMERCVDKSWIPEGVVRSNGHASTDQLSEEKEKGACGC
UniProt Q9NS91, whole entry, looked up: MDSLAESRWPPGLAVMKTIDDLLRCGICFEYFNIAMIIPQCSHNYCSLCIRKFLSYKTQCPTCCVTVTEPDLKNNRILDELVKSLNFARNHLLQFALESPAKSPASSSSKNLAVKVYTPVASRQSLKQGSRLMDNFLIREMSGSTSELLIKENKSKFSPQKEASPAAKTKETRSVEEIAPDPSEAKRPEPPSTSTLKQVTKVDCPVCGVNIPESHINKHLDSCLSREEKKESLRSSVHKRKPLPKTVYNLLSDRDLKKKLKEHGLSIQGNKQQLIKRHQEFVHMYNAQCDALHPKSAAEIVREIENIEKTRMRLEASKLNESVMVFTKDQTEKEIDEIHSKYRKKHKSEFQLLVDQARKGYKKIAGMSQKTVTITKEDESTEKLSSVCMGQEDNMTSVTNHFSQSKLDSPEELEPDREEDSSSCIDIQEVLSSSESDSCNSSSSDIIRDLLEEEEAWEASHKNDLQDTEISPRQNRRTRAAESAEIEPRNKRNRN
UniProt P98175: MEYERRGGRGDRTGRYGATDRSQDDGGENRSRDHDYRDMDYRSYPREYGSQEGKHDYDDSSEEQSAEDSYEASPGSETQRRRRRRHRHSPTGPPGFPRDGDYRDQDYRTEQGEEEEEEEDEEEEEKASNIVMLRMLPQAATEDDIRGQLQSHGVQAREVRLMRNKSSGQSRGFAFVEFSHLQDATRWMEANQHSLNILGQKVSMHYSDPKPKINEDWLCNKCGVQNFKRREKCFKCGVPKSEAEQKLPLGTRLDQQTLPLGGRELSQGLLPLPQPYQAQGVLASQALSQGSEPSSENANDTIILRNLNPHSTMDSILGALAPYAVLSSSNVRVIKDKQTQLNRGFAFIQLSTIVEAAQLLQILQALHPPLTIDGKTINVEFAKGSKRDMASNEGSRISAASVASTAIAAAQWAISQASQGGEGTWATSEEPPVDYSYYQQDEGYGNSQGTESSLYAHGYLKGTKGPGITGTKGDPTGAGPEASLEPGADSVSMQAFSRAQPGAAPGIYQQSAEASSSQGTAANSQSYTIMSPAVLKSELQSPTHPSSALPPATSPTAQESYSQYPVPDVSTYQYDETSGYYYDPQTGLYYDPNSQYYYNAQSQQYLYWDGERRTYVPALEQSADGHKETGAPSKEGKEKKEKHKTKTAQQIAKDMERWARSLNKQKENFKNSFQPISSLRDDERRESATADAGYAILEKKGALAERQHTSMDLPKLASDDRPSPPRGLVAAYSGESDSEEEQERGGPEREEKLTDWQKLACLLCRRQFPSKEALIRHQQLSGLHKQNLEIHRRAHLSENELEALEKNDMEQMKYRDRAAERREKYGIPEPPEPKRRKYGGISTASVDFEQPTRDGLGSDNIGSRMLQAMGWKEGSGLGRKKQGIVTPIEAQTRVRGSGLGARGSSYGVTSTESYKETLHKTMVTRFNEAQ
UniProt Q9ULC3: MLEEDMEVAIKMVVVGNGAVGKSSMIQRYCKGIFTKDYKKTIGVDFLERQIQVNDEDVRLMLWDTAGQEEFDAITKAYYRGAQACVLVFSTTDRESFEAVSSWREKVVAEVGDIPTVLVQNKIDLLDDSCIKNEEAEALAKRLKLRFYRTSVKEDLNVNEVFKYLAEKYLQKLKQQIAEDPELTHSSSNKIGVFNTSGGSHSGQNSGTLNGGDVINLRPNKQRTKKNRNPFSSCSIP
UniProt Q9NX57: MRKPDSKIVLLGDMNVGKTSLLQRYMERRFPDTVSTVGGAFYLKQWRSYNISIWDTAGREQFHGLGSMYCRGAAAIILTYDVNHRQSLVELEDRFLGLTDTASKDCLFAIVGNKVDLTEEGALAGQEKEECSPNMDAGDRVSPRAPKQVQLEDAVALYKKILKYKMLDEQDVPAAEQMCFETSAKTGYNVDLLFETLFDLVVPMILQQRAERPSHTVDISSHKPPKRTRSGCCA
UniProt Q96E17: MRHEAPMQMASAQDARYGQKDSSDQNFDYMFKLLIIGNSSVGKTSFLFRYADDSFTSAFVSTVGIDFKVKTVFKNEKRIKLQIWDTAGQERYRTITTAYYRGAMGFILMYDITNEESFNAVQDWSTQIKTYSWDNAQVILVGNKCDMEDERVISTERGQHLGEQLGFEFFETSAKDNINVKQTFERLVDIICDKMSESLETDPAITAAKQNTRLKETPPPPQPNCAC
UniProt Q09028, whole entry, looked up: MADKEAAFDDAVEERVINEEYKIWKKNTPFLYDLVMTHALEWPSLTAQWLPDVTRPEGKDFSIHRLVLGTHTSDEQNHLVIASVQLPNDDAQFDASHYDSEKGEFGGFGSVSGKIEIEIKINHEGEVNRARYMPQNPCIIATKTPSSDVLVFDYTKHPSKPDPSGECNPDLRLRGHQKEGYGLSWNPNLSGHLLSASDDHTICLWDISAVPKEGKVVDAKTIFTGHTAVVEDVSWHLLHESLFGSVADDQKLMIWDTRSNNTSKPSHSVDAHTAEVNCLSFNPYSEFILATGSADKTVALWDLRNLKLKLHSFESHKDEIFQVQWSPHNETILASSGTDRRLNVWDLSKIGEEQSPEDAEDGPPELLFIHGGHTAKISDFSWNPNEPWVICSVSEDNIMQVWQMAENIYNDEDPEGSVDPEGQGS
UniProt P61026: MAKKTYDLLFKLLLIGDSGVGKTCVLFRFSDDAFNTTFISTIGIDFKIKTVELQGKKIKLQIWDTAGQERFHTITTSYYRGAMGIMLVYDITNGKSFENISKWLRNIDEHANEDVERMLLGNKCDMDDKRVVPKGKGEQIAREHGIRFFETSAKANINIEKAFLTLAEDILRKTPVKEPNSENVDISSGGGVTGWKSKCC
UniProt P61019: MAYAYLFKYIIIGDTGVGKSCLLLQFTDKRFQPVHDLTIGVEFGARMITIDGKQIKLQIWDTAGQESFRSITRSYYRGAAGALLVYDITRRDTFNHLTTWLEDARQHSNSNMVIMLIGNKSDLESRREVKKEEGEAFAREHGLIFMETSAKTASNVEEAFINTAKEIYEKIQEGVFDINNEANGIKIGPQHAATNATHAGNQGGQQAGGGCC

Experiments:
Assay in all cases: log2 fold change, soluble protein after heating vs DMSO (PISA); higher = thermal stabilisation; K562 cells, 10 uM, 30 min; active = over 0.2 and 3.5 SD of the protein, either way, in both replicates (recomputed)
[1] = compound: C#Cc1cccc(Nc2ncnc3cc(OCCOC)c(OCCOC)cc23)c1 [erlotinib]
Method in brief: (§1)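 Thermal stability values are relative to control samples and come from duplicates. They are expressed as log2 fold changes. For measurement, K562 cells (2×10^6 cells/mL) received 10 μM compound for 30 min, and aliquots were heated for 3 min over 48°C-58°C, pooled, and extracted at 4°C in PBS with 0.5% NP-40. Soluble protein, the supernatant after 21,000xg for 90 min, was quantified by TMTpro 16plex LC-MS/MS with equalised channel sums.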

[2] = compound: C/C(=N\NC(=O)C1=CC(=CC=C1)S(=O)(=O)N2CCOCC2)/C3=C(C=CC(=C3)Cl)O
Method in brief: as §1

[3] = compound: C1=CC(=C(C=C1Cl)C2=NC3=NC=CN=C3C(=N2)NC4=CC=NC=C4)F
Method in brief: as §1

[4] = compound: C1=CC(=CC=C1C2=NC3=C(N2)C=C(C=C3)C(=O)N)OC4=CC=C(C=C4)Cl
Method in brief: as §1

[5] = compound: C1=CC2=C(C=CC(=C2)/C=C\3/C(=O)NC(=NCC4=CC=CS4)S3)N=C1
Method in brief: as §1

[6] = compound: C1=CC2=NC=CN=C2C=C1/C=C/3\C(=O)NC(=O)S3
Method in brief: as §1

[7] = compound: C1=CC=C(C=C1)C2=NC(=C(N2)C3=CC=NC=C3)C4=CC(=C(C=C4)Cl)O
Method in brief: as §1

[8] = compound: C1=CC=C2C(=C1)C3=NNC4=CC=CC(=C43)C2=O
Method in brief: as §1

[9] = compound: C1CCN(C1)C(=O)NC2=CC=CC(=C2)NC3=NC=C(C(=N3)NCCC4=CN=CN4)Br
Method in brief: as §1

[10] = compound: C1CN(CCC1(CC2=CC=C(C=C2)Cl)N)C3=NC=NC4=C3C=CN4
Method in brief: as §1

[11] = compound: C1COCCN1CCN2C3=CC=CC=C3N=C2NC(=O)C4=CC(=CC=C4)[N+](=O)[O-] [IRAK-1-4 Inhibitor I]
Method in brief: as §1

[12] = compound: C=CC(=O)N1CCC[C@@H](n2nc(-c3ccc(Oc4ccccc4)cc3)c3c(N)ncnc32)C1 [ibrutinib]
Method in brief: as §1

[13] = compound: CC(=O)c1cnc2ccc(-c3cc(Cl)c(O)c(Cl)c3)nc2c1N[C@H]1CC[C@H](CN(C)C)CC1
Method in brief: as §1

[14] = compound: CC(C)(C)Cn1c(N)nc2ccc(-c3[nH]c(C(C)(C)C)nc3-c3ccc(F)cc3)nc21 [ralimetinib]
Method in brief: as §1

[15] = compound: CC(C)(O)CC(=O)NCCn1ccc2ncnc(Nc3ccc(Oc4cccc(C(F)(F)F)c4)c(Cl)c3)c21
Method in brief: as §1

[16] = compound: CC(C)C1=C2N=C(C=C(N2N=C1)NCC3=CC=CC=C3)NCCCCCCN
Method in brief: as §1

[17] = compound: CC(C)C[C@@H](C=O)NC(=O)[C@H](CC(C)C)NC(=O)[C@H](CC(C)C)NC(=O)OCc1ccccc1
Method in brief: as §1

[18] = compound: CC(C)N(C[C@H]1O[C@@H](n2cnc3c(N)ncnc32)[C@H](O)[C@@H]1O)[C@H]1C[C@@H](CCc2nc3cc(C(C)(C)C)ccc3[nH]2)C1 [pinometostat]
Method in brief: as §1

[19] = compound: CC1=C(C(CC(=O)N1)C2=CC=C(C=C2)C(F)(F)F)C(=O)NC3=C(C=C4C(=C3)C=NN4)F
Method in brief: as §1

[20] = compound: CC1=C(C2=C(C=C1)C(=O)C3=CC=CC=C3N2CCCN)C
Method in brief: as §1

Measured: log2 fold change

RAB22A (UniProt Q9UL26)
inactive: [1] 0.007 | [2] -0.062 | [3] 0.023 | [4] -0.02 | [5] 0.038 | [6] 0.046 | [7] -0.018 | [8] -0.001 | [9] -0.072 | [10] 0.042 | [11] 0.042 | [12] 0.021 | [13] -0.022 | [14] -0.054 | [15] -0.004 | [16] 0.085 | [17] 0.007 | [18] -0.004 | [19] -0.002 | [20] 0.034

RAB40C (UniProt Q96S21)
inactive: [1] -0.174 | [2] -0.079 | [3] 0 | [4] 0.286 | [5] -0.033 | [6] -0.027 | [7] 0.04 | [8] 0.06 | [9] -0.259 | [10] 0.087 | [11] 0.04 | [12] 0.273 | [13] 0.177 | [14] -0.074 | [15] -0.081 | [16] -0.084 | [17] 0.003 | [18] -0.035 | [19] 0.064 | [20] 0.077

RAC2 (UniProt P15153)
inactive: [1] 0.009 | [2] -0.014 | [3] -0.045 | [4] -0.005 | [5] -0.003 | [6] 0.031 | [7] -0.008 | [8] -0.06 | [9] 0.01 | [10] 0.021 | [11] 0 | [12] 0.048 | [13] 0.053 | [14] -0.012 | [15] 0.235 | [16] 0.056 | [17] -0.054 | [18] -0.049 | [19] 0.017 | [20] 0.015

RBM3 (UniProt P98179)
inactive: [1] -0.092 | [2] -0.137 | [3] -0.26 | [4] 0.037 | [5] -0.14 | [6] 0.003 | [7] -0.076 | [8] 0.029 | [9] -0.007 | [10] -0.128 | [11] -0.06 | [12] 0.081 | [13] 0.017 | [14] 0.066 | [15] 0.086 | [16] 0.174 | [17] 0.281 | [18] 0.184 | [19] 0.01 | [20] -0.04

RAB12, A0A3B3ITT1
inactive: [1] 0.01 | [2] 0.071 | [3] 0.041 | [4] -0.028 | [5] 0.02 | [6] 0.007 | [7] 0.092 | [8] -0.033 | [9] -0.036 | [10] 0.04 | [11] 0.004 | [12] -0.013 | [13] -0.003 | [14] 0.034 | [15] 0.023 | [16] 0.02 | [17] -0.074 | [18] -0.035 | [19] 0.015 | [20] 0.043

RAD9A (UniProt Q99638)
inactive: [1] 0.018 | [2] 0.1 | [3] 0.037 | [4] 0.008 | [5] -0.006 | [6] -0.008 | [7] 0.06 | [8] -0.025 | [9] -0.022 | [10] 0.047 | [11] 0.008 | [12] 0.013 | [13] 0.037 | [14] 0.088 | [15] -0.033 | [16] 0.073 | [17] -0.067 | [18] -0.062 | [19] -0.016 | [20] 0.024

Two entries picked at random from those above:
RAB40C (UniProt Q96S21)
inactive: [1] -0.174 | [2] -0.079 | [3] 0 | [4] 0.286 | [5] -0.033 | [6] -0.027 | [7] 0.04 | [8] 0.06 | [9] -0.259 | [10] 0.087 | [11] 0.04 | [12] 0.273 | [13] 0.177 | [14] -0.074 | [15] -0.081 | [16] -0.084 | [17] 0.003 | [18] -0.035 | [19] 0.064 | [20] 0.077

RAB12, A0A3B3ITT1
inactive: [1] 0.01 | [2] 0.071 | [3] 0.041 | [4] -0.028 | [5] 0.02 | [6] 0.007 | [7] 0.092 | [8] -0.033 | [9] -0.036 | [10] 0.04 | [11] 0.004 | [12] -0.013 | [13] -0.003 | [14] 0.034 | [15] 0.023 | [16] 0.02 | [17] -0.074 | [18] -0.035 | [19] 0.015 | [20] 0.043

More entries follow:

RAB27A (UniProt P51159)
inactive: [1] -0.001 | [2] 0.056 | [3] 0.031 | [4] -0.039 | [5] 0.028 | [6] 0.016 | [7] -0.003 | [8] 0.003 | [9] 0.022 | [10] 0.015 | [11] 0.019 | [12] -0.013 | [13] -0.021 | [14] -0.068 | [15] 0.022 | [16] -0.019 | [17] -0.064 | [18] -0.033 | [19] -0.005 | [20] 0.053

RAD18 (UniProt Q9NS91)
inactive: [1] 0.186 | [2] 0.157 | [3] 0.123 | [4] -0.069 | [5] 0.048 | [6] 0.086 | [7] 0.019 | [8] 0.007 | [9] -0.096 | [10] -0.056 | [11] -0.067 | [12] -0.116 | [13] -0.099 | [14] -0.028 | [15] -0.133 | [16] -0.11 | [17] -0.003 | [18] -0.086 | [19] 0.081 | [20] -0.331

RBM10 isoform 5 (UniProt P98175)
inactive: [1] -0.043 | [2] -0.003 | [3] -0.144 | [4] 0.025 | [5] -0.069 | [6] 0.091 | [7] 0.002 | [8] -0.001 | [9] -0.062 | [10] -0.039 | [11] -0.018 | [12] -0.041 | [13] -0.09 | [14] 0.01 | [15] 0.052 | [16] 0.023 | [17] 0.103 | [18] 0.033 | [19] -0.122 | [20] 0.083

RAB23 (UniProt Q9ULC3)
inactive: [1] 0.066 | [2] -0.036 | [3] 0.074 | [4] -0.012 | [5] -0.058 | [6] 0.061 | [7] 0.021 | [8] -0.004 | [9] 0.078 | [10] 0.053 | [11] 0.016 | [12] -0.014 | [13] 0.006 | [14] -0.065 | [15] 0.004 | [16] 0.08 | [17] -0.026 | [18] -0.022 | [19] -0.022 | [20] 0.004

RAB20 (UniProt Q9NX57)
inactive: [1] -0.002 | [2] 0.051 | [3] -0.012 | [4] -0.012 | [5] -0.057 | [6] 0.055 | [7] -0.005 | [8] -0.036 | [9] -0.018 | [10] 0.052 | [11] 0.001 | [12] 0.002 | [13] -0.012 | [14] -0.042 | [15] 0 | [16] 0.112 | [17] -0.011 | [18] -0.004 | [19] 0.004 | [20] 0.04

RAB3C (UniProt Q96E17)
inactive: [1] -0.007 | [2] 0.063 | [3] 0.008 | [4] -0.059 | [5] -0.02 | [6] -0.066 | [7] -0.022 | [8] -0.053 | [9] 0.009 | [10] 0.061 | [11] 0.072 | [12] 0.051 | [13] 0.01 | [14] -0.048 | [15] 0.052 | [16] 0.032 | [17] -0.008 | [18] 0.014 | [19] 0.088 | [20] -0.047

RBBP4 (UniProt Q09028)
inactive: [1] -0.01 | [2] -0.011 | [3] -0.006 | [4] 0.001 | [5] 0.037 | [6] -0.011 | [7] 0.058 | [8] -0.023 | [9] -0.005 | [10] 0.013 | [11] 0.002 | [12] -0.032 | [13] 0.014 | [14] -0.023 | [15] 0.057 | [16] 0.026 | [17] -0.054 | [18] -0.07 | [19] -0.003 | [20] 0.012

RAN (UniProt P62826)
inactive: [1] 0 | [2] 0 | [3] 0.054 | [4] -0.023 | [5] 0 | [6] 0.005 | [7] -0.046 | [8] -0.021 | [9] 0.052 | [10] 0.035 | [11] 0.073 | [12] 0.017 | [13] 0.004 | [14] -0.039 | [15] 0.029 | [16] 0.039 | [17] -0.022 | [18] -0.027 | [19] 0.023 | [20] -0.047

RAB10 (UniProt P61026)
inactive: [1] -0.019 | [2] 0.002 | [3] 0.015 | [4] -0.007 | [5] 0.001 | [6] -0.002 | [7] 0.002 | [8] -0.023 | [9] 0.016 | [10] 0.08 | [11] 0.044 | [12] -0.014 | [13] 0.001 | [14] -0.071 | [15] 0.012 | [16] 0.078 | [17] -0.025 | [18] -0.03 | [19] -0.015 | [20] 0.003

RAB2A (UniProt P61019)
inactive: [1] -0.024 | [2] -0.004 | [3] 0.041 | [4] -0.005 | [5] 0.017 | [6] 0.074 | [7] 0.014 | [8] 0.02 | [9] 0.012 | [10] 0.019 | [11] 0.005 | [12] -0.024 | [13] -0.052 | [14] -0.068 | [15] 0.004 | [16] 0 | [17] -0.007 | [18] -0.026 | [19] -0.012 | [20] 0.009
